Measured values taken from US6696486B1, “Medical use for atypical β-adrenoceptor agonists” (Glaxo Group Limited, priority 1992, dated 2004).

Tested on: indomethacin-induced antral damage
Test: indomethacin-induced gastric antral lesions in the re-fed rat (Method 2)
Type: in vivo
Settings: (S)-propranolol 10 mg/kg i.p.
Source text: An experimental model in which atypical beta-adrenoceptor agonists may be shown to be of use in the treatment of gastrointestinal disorders is described below as Method 2. The procedure is based upon that described by H. Satoh et. al., Gastroenterology, 81, 719-725 (1981) in which the effect of compounds on indomethacin-induced gastric antral lesions in the re-fed rat is investigated. Indomethacin is an example of the class of compound known as non-steroidal anti-inflammatory drugs (NSAIDs), the use of which is frequently associated with gastrointestinal ulcers.
Food (but not water) is withheld from female random hooded rats (70-120 g) for 24 hours and then the rats are re-fed with Rat and Mouse No. 1 Maintenance Diet. […]
The rat's stomach is removed (with a small amount of duodenum attached), opened along the greater curvature and the contents removed by washing with 0.9% w/v sodium chloride solution (saline). The opened stomach is pinned out (mucosal surface uppermost) on a polystyrene mat and the area of damage assessed by placing a grid (composed of 1 mm squares) over the antral region. […] The total area of antral damage is then expressed as a percentage of the total surface area of the antrum.
The protective effect of the test compound on indomethacin-induced antral damage is calculated as a percentage using the following equation: [formula]

COC(=O)COc1ccc(CC(C)NCC(O)c2cccc(Cl)c2)cc1 (stereo not shown) [BRL 35135, N-[2-(4-carbomethoxymethoxyphenyl)-1-methylethyl]-2-hydroxy-2-(3-chlorophenyl)ethanamine] was tested. Which “effect of (S)-isomer of propranolol on the responses of BRL35135” value did it give?
Its value is “no effect”.
